Several values for one entry are separate records, joined by “and”; a condition that tells them apart may be missing. Equal entries are not always repeated. In all, about 340,000 compounds went through this assay and about 170 (0.05%) were called active. The inconclusive results got no clear call from the source; some entries with a clear call stand among them for comparison. Calls come from the whole dose curve; as a rule, active = well fitted inhibition curve with a large enough effect in the signal ratio, with a control signal flat (not every such curve was filed as active); inconclusive = small, poorly fitted or top-dose-only effect, or effect the other way, or a change in a side signal; inactive = flat fitted curve, though single readings scatter; the % refers to the signal ratio. Potencies beside an inconclusive call are fits to weak or partial responses and may not hold up.
Experiment: qHTS Assay to Find Inhibitors of Chronic Active B-Cell Receptor Signaling;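 for activity change, negative = inhibition: plate controls were basal doxycycline-induced cells for no effect and cells given 10 µM MG132 for full effect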
Conditions: ABC-DLBCL IkBa-CBG/CBR reporter, luminescence ratio (green luciferase fused to IkBa over red control in TMD8 lymphoma cells), 4 h; activity change, negative = inhibition: at 46.1 µM (top of the series) unless noted
Outline: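 TMD8 human ABC-DLBCL cells with doxycycline-inducible IκBα–green luciferase fusion and unfused red luciferase, in 0.5% FBS medium; compounds up to 46 uM, 4 h at 37C. Green/red luminescence ratio, filter-overlap corrected, fitted to concentration-response curves.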
Potency is the fitted concentration of half-maximal effect.

Row | Compound | Potency | activity change, negative = inhibition
1 | CCc1ccc(/C=C2/SC(=S)N(CCC(=O)Nc3ccc(C(=O)O)cc3)C2=O)cc1 | inconclusive: 3.16 µM [falling, single point] | –
2 | Cc1nn(CC(=O)NCCc2cccs2)c(=O)c2cc3ccccc3n12 | – | inactive: -1.45%
3 | C=C(C)C1CC=C(C)/C(=N/NC(=O)c2ccoc2C)C1 (configuration not stated) | inconclusive: 14.6 µM [falling, partial curve, poor fit] | –
4 | O=[N+]([O-])c1ccc(N=Nc2ncc[nH]2)cc1 | inconclusive: 6.31 µM [falling, single point] | –
5 | O=C(O)CC(C(=O)O)N1C(=O)/C(=C/c2ccc(-c3nc4ccccc4s3)o2)SC1=S (configuration not stated) | – | inactive: -17.6%
6 | COc1cc(C2NC(=O)NC(C)=C2C(=O)OC2CCCC(C)C2)ccc1O (configuration not stated) | inconclusive: 18.4 µM [falling, single point] | –
7 | CN(C)/C=N/C1=C(C#N)C(c2ccc(Br)cc2)c2ccc3ccccc3c2O1 (configuration not stated) | – | inconclusive: 2.34%
8 | CCN(CC)S(=O)(=O)c1cc([N+](=O)[O-])ccc1N=Nc1c(O)[nH]c2ccccc12 | – | inconclusive: 1.68%
9 | COC(=O)C1=CN(C(C)C)C=C(C(=O)OC)C1c1cc2c(cc1Br)OCO2 | – | inactive: -1.32%
10 | CCOc1cc(NC(=S)NCCCN2CCOCC2)c(OCC)cc1NC(=O)C(C)C | – | inconclusive: 5.12%
11 | CC1CC(C)(C)Nc2ccc(OC(=O)c3ccco3)cc21 (configuration not stated) | inconclusive: 3.16 µM [falling, single point] | –
12 | CN1CCN(c2ccc([N+](=O)[O-])cc2C(=O)c2ccc(Br)cc2)CC1 | – | inactive: -6.21%
13 | CCc1ccc(C2=NN(CCC(=O)NCCc3ccccc3)C(=O)CC2)cc1 | inconclusive: 35.5 µM [falling, single point] | –
14 | CC1(c2ccc(Cl)cc2)NC(=O)N(CC(=O)NCc2ccc(F)cc2)C1=O (configuration not stated) | – | inconclusive: 0.37%
15 | NS(=O)(=O)c1ccc(CCNC(=O)c2ccc(C#CC3(O)CCCCC3)cc2)cc1 | – | inconclusive: 0.166%
16 | Oc1cccc(C(O)CNCc2ccc(-c3ccccc3)cc2)c1 (configuration not stated) | – | inactive: -3.6%
17 | Cc1ccc(CNC(=O)CN(C)S(=O)(=O)c2cccs2)cc1 | – | inactive: 0.226%
18 | CCOC(=O)C1=C(N)Oc2cc(O)ccc2C1c1ccc(C)cc1 (configuration not stated) | inconclusive: 20 µM [falling, single point] | –
19 | O=C(NCCCc1ccccc1)c1ccc(F)cc1 | – | inactive: -0.686%
20 | O=[N+]([O-])c1ccc(C=Nc2ccc(Cl)c([N+](=O)[O-])c2)s1 | – | inactive: -8.8%
21 | CC1(C)C(=O)Nc2ccccc2N1C(=O)COC(=O)Cc1ccc(Cl)c(Cl)c1 | – | inactive: -4.04%
22 | C/C(=N\OCC(=O)OCC(=O)NCc1ccccc1)c1ccc2c(c1)OCO2 | – | inconclusive: 5.33%
23 | O=C(NC1=NCCS1)c1ccc2c(c1)C(=O)N(Cc1ccco1)C2=O | – | inconclusive: 1.66%
24 | O=C(NN=C1CCCCCC1)c1ccc(Br)o1 | inconclusive: 29.1 µM [falling, partial curve, poor fit] | –
25 | CCC(=O)NC(=S)Nc1ccc(NC(=O)c2ccccc2[N+](=O)[O-])cc1 | inconclusive: 16.4 µM [falling, single point] | –
26 | COc1cc(/C=C/c2cc[n+](C)cc2)ccc1OCC(=O)Nc1ccc(Cl)c(Cl)c1 | – | inactive: 5.11%

Row | Compound | Potency | activity change, negative = inhibition
27 | Cc1cc2[nH]c(=S)[nH]c2cc1C | – | inactive: 0.96%
28 | CCOc1cc(C=O)cc(Br)c1OCC(=O)NCCc1ccccc1 | – | inconclusive: -4.85%
29 | O=C(C[C@@H]1C/C=C\CCCC(=O)OC[C@@H]2CCCN2C1=O)N[C@@H](CO)Cc1ccccc1 | – | inactive: 2.38%
30 | COc1ccccc1NC(=O)CN1CCN(CC(=O)Nc2ccc3c(c2)OCCO3)CC1 | inconclusive: 4.11 µM [falling, partial curve] | –
31 | N#C/C(=C\c1ccc(F)cc1)c1nc(-c2ccco2)cs1 | – | inconclusive: 3.03%
32 | CCOc1ccc(C(=O)Nc2ccc3c(c2)C(=O)NC3=O)cc1 | inconclusive: 0.398 µM [falling, full curve, poor fit] | –
33 | CC1=[N+](C)c2ccc3ccccc3c2C1(C)C | – | inconclusive: 0.233%
34 | N#C/C(=C/c1ccc(N2CCCCCC2)o1)c1ccc(Cl)cc1 | inconclusive: 10.3 µM [falling, partial curve, poor fit] | –
35 | CCc1nc2ccc(C(=O)N3CCN(c4cccc(Cl)c4)CC3)cc2nc1CC | inconclusive: 12.6 µM [rising, partial curve, poor fit] and inconclusive: 10 µM [rising, partial curve, poor fit] | –
36 | O=C(CCC(=O)N1CCOc2ccc(Cl)cc21)NCCCN1CCN(Cc2ccccc2)CC1 | inconclusive: 5.01 µM [falling, partial curve, poor fit] | –
37 | CCOC(=O)C1(CC2CCCCO2)CCN(Cc2c(C)cc(C)cc2-n2cccn2)CC1 (configuration not stated) | – | inconclusive: -22.9%
38 | OCCC1CN(CCCc2ccccc2)CCN1CCc1ccccc1 (configuration not stated) | – | inactive: 0.864%
39 | N/C(=N\OC(=O)C12CC3CC(CC(C3)C1)C2)c1ccccc1 | inconclusive: 22.4 µM [falling, single point] | –
40 | O=C(O)c1ccc(NC(=O)c2ccc(COc3ccc(Cl)cc3)o2)cc1 | – | inconclusive: -1.8%
41 | Cn1ncc([N+](=O)[O-])c1C(=O)Nc1ccc(-c2ccccc2)cc1 | – | inconclusive: 7.63%
42 | O=C(Nc1cccc(C(=O)NC2CCCCC2)c1)c1ccccc1 | inconclusive: 7.08 µM [falling, partial curve] | –
43 | CCC(=O)N(CCC(Cc1ccccc1)c1ccco1)Cc1ccco1 (configuration not stated) | – | inconclusive: -0.0529%
44 | O=C(CC1NC(=S)NC1=O)c1ccc(Cl)cc1 (configuration not stated) | – | inconclusive: 10.8%
45 | CCn1ccnc1CN(C)C(=O)c1cc(COc2ccccc2SC)on1 | – | inconclusive: 0.031%
46 | COc1cc(CC(=O)OCC(=O)NC(C)c2ccccc2)cc(OC)c1OC (configuration not stated) | – | inconclusive: 0.0814%
47 | COc1ccc2[nH]c(-c3cccc(F)c3)cc(=O)c2c1 | inconclusive: 2.59 µM [falling, partial curve, poor fit] | –
48 | O=C(CNC(=O)c1ccc(Cl)cc1)N/N=C/c1cccnc1 | – | inconclusive: -0.163%
49 | O=[N+]([O-])c1ccc(N/N=C/c2cn(Cc3ccc(F)cc3)c3ccccc23)nc1 | – | inactive: 2.73%
50 | COc1ccc(-c2cc(-c3ccccc3)nc(NN)n2)cc1OC | – | inactive: -0.12%
51 | COC(=O)c1cc(S(=O)(=O)NCC2CCN(CCc3ccc(OC)cc3)CC2)c[nH]1 | – | inactive: -6.63%
52 | CCOc1nc(NCCO)nc(NCCC2=CCCCC2)n1 | – | inconclusive: 10.2%

Taken from above.
activity change, negative = inhibition with COc1ccc(-c2cc(-c3ccccc3)nc(NN)n2)cc1OC reads inactive: -0.12%
Potency with COc1ccccc1NC(=O)CN1CCN(CC(=O)Nc2ccc3c(c2)OCCO3)CC1 reads inconclusive: 4.11 µM [falling, partial curve]
Potency with N/C(=N\OC(=O)C12CC3CC(CC(C3)C1)C2)c1ccccc1 reads inconclusive: 22.4 µM [falling, single point]
Potency with O=C(Nc1cccc(C(=O)NC2CCCCC2)c1)c1ccccc1 reads inconclusive: 7.08 µM [falling, partial curve]
activity change, negative = inhibition with OCCC1CN(CCCc2ccccc2)CCN1CCc1ccccc1 (configuration not stated) reads inactive: 0.864%
activity change, negative = inhibition with COc1cc(CC(=O)OCC(=O)NC(C)c2ccccc2)cc(OC)c1OC (configuration not stated) reads inconclusive: 0.0814%

Additional entries follow.

Row | Compound | Potency | activity change, negative = inhibition
53 | CCOC(=O)Cc1csc(N/N=C\c2ccccc2OC)n1 | inconclusive: 25.1 µM [falling, single point] | –
54 | Cc1c(Br)c(C(F)(F)F)nn1CC(=O)NCC1CCCO1 (configuration not stated) | – | inconclusive: 1.13%
55 | CN(c1ccccc1)S(=O)(=O)c1cccc(NC(=O)CSc2n[nH]c(N)n2)c1 | – | inactive: 1.51%
56 | CCn1c(SCC(N)=O)nc2sc3c(c2c1=O)CCCC3 | inconclusive: 2.59 µM [falling, partial curve, poor fit] | –
57 | COc1ccc(NC(=S)N2CCC(Cc3ccccc3)CC2)cc1 | – | inactive: 4.01%
58 | CCCc1cc(N2CCCC2)n2nc(C)c(-c3ccccc3)c2n1 | – | inconclusive: 1.89%
59 | CCN1c2ccccc2-c2nc3ccccc3n2C1c1ccncc1 (configuration not stated) | – | inconclusive: 1.99%
60 | COc1ccc(-c2nnc(SCC(C)C)o2)cc1 | inconclusive: 28.2 µM [falling, single point] | –
61 | NC(=O)CC(NC(=O)Cc1ccc(Br)cc1)c1ccc(NC2CC3CCC2C3)c([N+](=O)[O-])c1 (configuration not stated) | inconclusive: 0.891 µM [falling, full curve, poor fit] | –
62 | CCCN1C(=O)SC(CC(=O)Nc2ccccc2C)C1=O (configuration not stated) | – | inconclusive: -21.4%
63 | NS(=O)(=O)c1ccc(CCNCC(=O)N2CCC(Cc3ccccc3)CC2)cc1 | – | inconclusive: -15.2%
64 | COc1ccc(NC(=O)c2ccccc2OCc2c(C)noc2C)cc1OC | – | inconclusive: 0.865%
65 | Cc1cccn2c(=O)c3cc(C(=O)NCCN4CCOCC4)n(Cc4ccccc4)c3nc12 | – | inactive: -0.0332%
66 | CC(Oc1ccccc1Cl)C(=O)Nc1ccc(S(=O)(=O)N2CCCC2)cc1 (configuration not stated) | inconclusive: 9.2 µM [falling, partial curve, poor fit] | –
67 | COP(=O)(OC)C(NC(=O)Nc1ccccc1)c1ccccc1 (configuration not stated) | – | inactive: 0.637%
68 | CC12C(=O)N(c3ccccc3)C(=O)C1C(c1ccccc1)N1CCCN12 (configuration not stated) | – | inconclusive: 6.05%
69 | Nc1nnc(SCC(=O)Nc2cc(F)ccc2F)s1 | – | inconclusive: 18.3%
70 | CC(/C=C1\SC(=S)N(CCC(=O)Nc2cccc(C(=O)O)c2)C1=O)=C\c1ccccc1 | – | inconclusive: -18.6%
71 | COc1ccc(C2C(C(C)=O)=C(O)C(=O)N2CCc2c[nH]c3ccccc23)cc1OC (configuration not stated) | inconclusive: 29.1 µM [rising, single point] | –
72 | CCOC(=O)Cc1csc(NC(=O)CCCc2ccccc2)n1 | inconclusive: 22.4 µM [falling, single point] | –
73 | CCc1ccccc1OCC(=O)Nc1nc(-c2cccnc2)cs1 | inconclusive: 3.16 µM [falling, partial curve] | –
74 | Cc1cc(C)n(-c2cc(Oc3ccccc3)ncn2)n1 | inconclusive: 2.59 µM [rising, partial curve, poor fit] | –
75 | Cc1nccn1CCC1CCCCN1C(=O)CCc1nnc(-c2ccsc2)o1 (configuration not stated) | – | inconclusive: 18.6%
76 | CCN1/C(=C\C=C(C(C)=O)C(C)=O)Sc2ccccc21 | – | inactive: -26.2%
77 | O=C(Nc1cccc(NC(=O)c2cccc(Cl)c2)c1)c1cccnc1 | inconclusive: 2.51 µM [falling, partial curve, poor fit] | –
